Results as given in US20150065343A1, “Acrylamide compounds for combating invertebrate pests” (priority 2012, published 2015).
Some of these results come from one statement about several compounds together.

What was measured:
Type in all cases: in vivo
[1] = test system: Cowpea aphid (Aphis craccivora); assay: B.1 Cowpea aphid spray test on potted cowpea plants; conditions: 500 ppm; sprayed cowpea plants; population reduction assessed after 24, 72 and 120 hours
[2] = test system: Green peach aphid (Myzus persicae); assay: B.3 Green peach aphid systemic test, artificial diet in 96-well plates; conditions: 2500 ppm, adult aphids, 3 days
Text: B.3 Green peach aphid (Myzus persicae)
For evaluating control of green peach aphid (Myzus persicae) through systemic means the test unit consisted of 96-well-microtiter plates containing liquid artificial diet under an artificial membrane.
The compounds were formulated using a solution containing 75% v/v water and 25% v/v DMSO. Different concentrations of formulated compounds were pipetted into the aphid diet, using a custom built pipetter, at two replications.
After application, 5-8 adult aphids were placed on the artificial membrane inside the microtiter plate wells. The aphids were then allowed to suck on the treated aphid diet and incubated at about 23+1° C. and about 50+5% relative humidity for 3 days. Aphid mortality and fecundity was then visually assessed.

[3] = test system: Boll weevil (Anthonomus grandis); assay: B.10 Boll weevil microtiter plate test on insect diet with eggs; conditions: 2500 ppm; sprayed onto insect diet at 20 μl; egg and larval mortality after 5 days
Method: B.10 Boll weevil (Anthonomus grandis)
For evaluating control of boll weevil (Anthonomus grandis) the test unit consisted of 24-well-microtiter plates containing an insect diet and 20-30 A. grandis eggs.
The compounds were formulated using a solution containing 75% v/v water and 25% v/v DMSO. Different concentrations of formulated compounds were sprayed onto the insect diet at 20 μl, using a custom built micro atomizer, at two replications.
After application, microtiter plates were incubated at about 23±1° C. and about 50±5% relative humidity for 5 days. Egg and larval mortality was then visually assessed.

[4] = test system: Tobacco budworm (Heliothis virescens); assay: B.9 Tobacco budworm microtiter plate test on insect diet with eggs; conditions: 2500 ppm; sprayed onto insect diet at 10 μl; egg and larval mortality after 5 days
Method: B.9 Tobacco budworm (Heliothis virescens) HELVI
For evaluating control of tobacco budworm (Heliothis virescens) the test unit consisted of 96-well-microtiter plates containing an insect diet and 15-25 H. virescens eggs.
The compounds were formulated using a solution containing 75% v/v water and 25% v/v DMSO. Different concentrations of formulated compounds were sprayed onto the insect diet at 10 μl, using a custom built micro atomizer, at two replications.
(§1) After application, microtiter plates were incubated at about 28±1° C. and about 80±5% relative humidity for 5 days. Egg and larval mortality was then visually assessed.

[5] = test system: Silverleaf whitefly (bernisia argentifolii); assay: B.6 Silverleaf whitefly spray test on cotton plants; conditions: 300 ppm; sprayed cotton plants; whitefly adults; 3 days after treatment
Text: B.6 Silverleaf whitefly (bernisia argentifolii)
(§2) The active compounds were formulated in cyclohexanone as a 10,000 ppm solution supplied in tubes. The tubes were inserted into an automated electrostatic sprayer equipped with an atomizing nozzle and they served as stock solutions for which lower dilutions were made in 50% acetone:50% water (v/v). A nonionic surfactant (Kinetic®) was included in the solution at a volume of 0.01% (v/v).
Cotton plants at the cotyledon stage (one plant per pot) were sprayed by an automated electrostatic plant sprayer equipped with an atomizing spray nozzle. The plants were dried in the sprayer fume hood and then removed from the sprayer. Each pot was placed into a plastic cup and about 10 to 12 whitefly adults (approximately 3-5 days old) were introduced. The insects were collected using an aspirator and a nontoxic Tygon® tubing connected to a barrier pipette tip. The tip, containing the collected insects, was then gently inserted into the soil containing the treated plant, allowing insects to crawl out of the tip to reach the foliage for feeding. Cups were covered with a reusable screened lid. Test plants were maintained in a growth room at about 25° C. and about 20-40% relative humidity for 3 days, avoiding direct exposure to fluorescent light (24 hour photoperiod) to prevent trapping of heat inside the cup. Mortality was assessed 3 days after treatment, compared to untreated control plants.

[6] = test system: Southern armyworm (Spodoptera eridania); assay: B.7 Southern armyworm spray test on lima bean plants; conditions: 300 ppm; sprayed lima bean foliage; armyworm larvae; 4 days after treatment
Method: B.7 Southern armyworm (Spodoptera eridania)
as §2
Lima bean plants (variety Sieva) were grown 2 plants to a pot and selected for treatment at the 1st true leaf stage. Test solutions were sprayed onto the foliage by an automated electrostatic plant sprayer equipped with an atomizing spray nozzle. The plants were dried in the sprayer fume hood and then removed from the sprayer. Each pot was placed into perforated plastic bags with a zip closure. About 10 to 11 armyworm larvae were placed into the bag and the bags zipped closed. Test plants were maintained in a growth room at about 25° C. and about 20-40% relative humidity for 4 days, avoiding direct exposure to fluorescent light (24 hour photoperiod) to prevent trapping of heat inside the bags. Mortality and reduced feeding were assessed 4 days after treatment, compared to untreated control plants.

[7] = test system: Mediterranean fruitfly (Ceratitis capitata); assay: B.4 Mediterranean fruitfly microtiter plate test on insect diet with eggs; conditions: 2500 ppm; sprayed onto insect diet at 5 μl; egg and larval mortality after 5 days
Method: B.4 Mediterranean fruitfly (Ceratitis capitata)
For evaluating control of Mediterranean fruitfly (Ceratitis capitata) the test unit consisted of microtiter plates containing an insect diet and 50-80 C. capitate eggs.
The compounds were formulated using a solution containing 75% v/v water and 25% v/v DMSO. Different concentrations of formulated compounds were sprayed onto the insect diet at 5 μl, using a custom built micro atomizer, at two replications.
as §1

[8] = test system: Diamond back moth (Plutella xylostella); assay: B.2 Diamond back moth leaf-dip test on Chinese cabbage; conditions: 500 ppm; dipped Chinese cabbage leaves; mortality recorded 24, 72 and 120 hours after treatment
Method: B.2 Diamond back moth (Plutella xylostella)
Leaves of Chinese cabbage were dipped in test solution and air-dried. Treated leaves were placed in petri dished lined with moist filter paper. Mortality was recorded 24, 72, and 120 hours after treatment.

[9] = test system: Orchid thrips (dichromothrips corbetti); assay: B.5 Orchid thrips floral-immersion test; conditions: 500 ppm, adult thrips, after 4 days
Method: B.5 Orchid thrips (dichromothrips corbetti)
Dichromothaps corbetti adults used for bioassay were obtained from a colony maintained continuously under laboratory conditions. For testing purposes, the test compound was diluted to a concentration of 500 ppm (wt compound: vol diluent) in a 1:1 mixture of acetone:water (vol:vol), plus 0.01% vol/vol Kinetic® surfactant.
Thrips potency of each compound was evaluated by using a floral-immersion technique. Plastic petri dishes were used as test arenas. All petals of individual, intact orchid flowers were dipped into treatment solution and allowed to dry. Treated flowers were placed into individual petri dishes along with 10-15 adult thrips. The petri dishes were then covered with lids. All test arenas were held under continuous light and a temperature of about 28° C. for duration of the assay. After 4 days, the numbers of live thrips were counted on each flower, and along inner walls of each petri dish. The level of thrips mortality was extrapolated from pre-treatment thrips numbers.

[10] = test system: Vetch aphid (Megoura viciae); assay: B.8 Vetch aphid test on broad bean leaf disks in 24-well plates; conditions: 2500 ppm; sprayed onto leaf disks at 2.5 μl; adult aphids; 5 days
Method: B.8 Vetch aphid (Megoura viciae)
For evaluating control of vetch aphid (Megoura viciae) through contact or systemic means the test unit consisted of 24-well-microtiter plates containing broad bean leaf disks.
The compounds were formulated using a solution containing 75% v/v water and 25% v/v DMSO. Different concentrations of formulated compounds were sprayed onto the leaf disks at 2.5 μl, using a custom built micro atomizer, at two replications.
After application, the leaf disks were air-dried and 5-8 adult aphids placed on the leaf disks inside the microtiter plate wells. The aphids were then allowed to suck on the treated leaf disks and incubated at about 23±1° C. and about 50±5% relative humidity for 5 days. Aphid mortality and fecundity was then visually assessed.

Measured: mortality in comparison with untreated controls

Cc1cc(/C=C/C(=O)NC(c2cccc(C(F)(F)F)c2)C(F)(F)F)sc1C=NNC(=O)NCC(F)F (racemic) [Compound 1-4]
at least 75%: [1] | [2] | [3]

CNC(=S)NN=Cc1sc(/C=C/C(=O)NC(c2cccc(C(F)(F)F)c2)C(F)(F)F)cc1C (racemic) [Compound 1-5]
at least 75%: [1] | [4]

Cc1cc(/C=C/C(=O)NC(c2cccc(C(F)(F)F)c2)C(F)(F)F)sc1C(=O)NC1CCCC1 (racemic) [Compound 2-2]
at least 75%: [3] | [5] | [6] | [4]

CNC(=O)c1sc(/C=C/C(=O)NC(c2cccc(C(F)(F)F)c2)C(F)(F)F)cc1C (racemic) [Compound 2-3]
not listed: [5] | [9] | [10]
at least 75%: all other assays above

CCNC(=O)c1sc(/C=C/C(=O)NC(c2cccc(C(F)(F)F)c2)C(F)(F)F)cc1C (racemic) [Compound 2-4]
not listed: [1] | [5] | [10]
at least 75%: all other assays above

Cc1cc(/C=C/C(=O)NC(c2cccc(C(F)(F)F)c2)C(F)(F)F)sc1C(=O)NCC(F)(F)F (racemic) [Compound 2-6]
not listed: [1] | [5] | [7]
at least 75%: all other assays above

Cc1cc(/C=C/C(=O)NC(c2cccc(C(F)(F)F)c2)C(F)(F)F)sc1C(=O)NC1CCC1 (stereo not shown) [Compound 2-9]
at least 75%: [3] | [5] | [6]

Cc1cc(/C=C/C(=O)NC(c2cccc(C(F)(F)F)c2)C(F)(F)F)sc1C(=O)Nc1ccccn1 (stereo not shown) [Compound 2-19]
not listed: [1] | [2] | [5]
at least 75%: all other assays above

Cc1cc(/C=C/C(=O)NC(c2cccc(C(F)(F)F)c2)C(F)(F)F)sc1C(=O)NC1(C#N)CC1 (stereo not shown) [Compound 2-26]
at least 75%: [2] | [3] | [8] | [4] | [9] | [10]

Cc1cc(/C=C/C(=O)NC(c2cccc(C(F)(F)F)c2)C(F)(F)F)sc1C(=O)NCC1(C#N)CC1 (stereo not shown) [Compound 2-27]
at least 75%: [1] | [2] | [3] | [8]

CCN(Cc1sc(/C=C/C(=O)NC(c2cccc(C(F)(F)F)c2)C(F)(F)F)cc1C)C(=O)C1CC1 (stereo not shown) [Compound 3-2]
at least 75%: [7] | [2] | [3] | [6] | [4] | [10]

Cc1cc(/C=C/C(=O)NC(c2cccc(C(F)(F)F)c2)C(F)(F)F)sc1CNC(=O)CC(F)(F)F (stereo not shown) [Compound 3-5]
at least 75%: [7] | [2] | [3] | [5] | [6] | [4]

Cc1cc(/C=C/C(=O)NC(c2cccc(C(F)(F)F)c2)C(F)(F)F)sc1CNC(=O)C1CC1 (stereo not shown) [Compound 3-8]
at least 75%: [2] | [3] | [8] | [9] | [10]
